# The other results are listed elsewhere or left out.
# B1: Vd7LysM (Verticillium dahliae) (protein)
# chain: RRGPEPKYPPAAGTSSYCSYWVDYEGDKSCSRVLEDNVVVLKDFARWNPTVGADCSGIKAGNSYCVEAFGEPEPIEVTTTTRAATTTTQPTATTTTFANGIATPQPTQSGMVTNCNKFHWIAEGVSCSQVISFQKITLADFVKWNPSVKSDCSGMWAGVNVCVGVVGSSTDTAKPTTTAPSNGVVTPQPTQPSMVTNCNKFHWIAKGVTCQQVISYQKISLADFVKWNPSVLSDCSGMWAEVQVCVGVIGSTPTTLATTTTTAGNGVSTPLPTQPGMVTNCAKFHWVAKGVTCNQIYSFQKITLEQFVSYNPTVKSDCSGMQAEVQVCVGLIAGTTPTTTRPPTTTAPGNGVSTPQPTQPGMVTNCAKFHWVAKGVTCNQIYSFQKITLEQFVSFNPTVKSDCTGMQAEVNVCVGLIGGNPTPTQTGNGIATPTPIQPGMVSNCKKFHWIAQGVTCQQVISFQKITLADFVKWNTGVGSDCRTMWAETNVCVGV
# Experiments:
# Assay in all cases: glycan array binding signal (z-score within array); higher = stronger binding
# Conditions in all cases: glycan notation: IUPAC condensed, linker removed
# [1] = molecular target: Gal(b1-4)GlcNAc(b1-3)Gal(b1-4)GlcNAc(b1-6)[Gal(b1-3)]GalNAc
# Summary of the method: (§1)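 The binding signal is a Z-score computed within each array and averaged over linkers. Arrays of the same protein sequence at different concentrations or buffers were also averaged together. Data originate from 3228 arrays in the Consortium for Functional Glycomics database, kept only where the protein sequence was available.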
# [2] = molecular target: Gal(b1-4)GlcNAc(b1-3)Gal(b1-4)[Fuc(a1-3)]GlcNAc(b1-3)Gal(b1-4)[Fuc(a1-3)]GlcNAc
# Summary of the method: as §1
# [3] = molecular target: Gal(b1-4)GlcNAc(b1-3)GalNAc
# Summary of the method: as §1
# [4] = molecular target: Gal(b1-4)GlcNAc(b1-3)[Fuc(a1-3)GlcNAc(b1-6)]Gal(b1-4)Glc
# Summary of the method: as §1
# [5] = molecular target: Gal(b1-4)GlcNAc(b1-3)[Gal(b1-4)GlcNAc(b1-6)]Gal(b1-4)GlcNAc
# Summary of the method: as §1
# [6] = molecular target: Gal(b1-4)GlcNAc(b1-3)[GlcNAc(b1-6)]Gal(b1-4)GlcNAc
# Summary of the method: as §1
# [7] = molecular target: Gal(b1-4)GlcNAc(b1-6)Gal(b1-4)GlcNAc
# Summary of the method: as §1
# [8] = molecular target: Gal(b1-4)GlcNAc(b1-6)GalNAc
# Summary of the method: as §1
# [9] = molecular target: Gal(b1-4)GlcNAc(b1-6)[Gal(b1-3)]GalNAc
# Summary of the method: as §1
# [10] = molecular target: Gal(b1-4)GlcNAc(b1-6)[Gal(b1-4)GlcNAc(b1-3)]GalNAc
# Summary of the method: as §1
# Gal(b1-4)GlcNAc6P = molecular target: Gal(b1-4)GlcNAc6P
# Summary of the method: as §1
# Gal(b1-6)Gal = molecular target: Gal(b1-6)Gal
# Summary of the method: as §1
# Gal3S(b1-3)GalNAc = molecular target: Gal3S(b1-3)GalNAc
# Summary of the method: as §1
# Gal3S(b1-3)GlcNAc = molecular target: Gal3S(b1-3)GlcNAc
# Summary of the method: as §1
# [11] = molecular target: Gal3S(b1-3)[Fuc(a1-4)]GlcNAc
# Summary of the method: as §1
# Gal3S(b1-4)Glc = molecular target: Gal3S(b1-4)Glc
# Summary of the method: as §1
# Gal3S(b1-4)Glc6S = molecular target: Gal3S(b1-4)Glc6S
# Summary of the method: as §1
# Gal3S(b1-4)GlcNAc = molecular target: Gal3S(b1-4)GlcNAc
# Summary of the method: as §1
# [12] = molecular target: Gal3S(b1-4)[Fuc(a1-3)]Glc6S
# Summary of the method: as §1
# [13] = molecular target: Gal3S(b1-4)[Fuc(a1-3)]GlcNAc
# Summary of the method: as §1
# [14] = molecular target: Gal3S(b1-4)[Fuc(a1-3)]GlcNAc6S
# Summary of the method: as §1
# Gal3S4S(b1-4)GlcNAc = molecular target: Gal3S4S(b1-4)GlcNAc
# Summary of the method: as §1
# Gal3S6S(b1-4)GlcNAc = molecular target: Gal3S6S(b1-4)GlcNAc
# Summary of the method: as §1
# Gal3S6S(b1-4)GlcNAc6S = molecular target: Gal3S6S(b1-4)GlcNAc6S
# Summary of the method: as §1
# Gal4S(b1-4)GlcNAc = molecular target: Gal4S(b1-4)GlcNAc
# Summary of the method: as §1
# Gal4S6S(b1-4)GlcNAc = molecular target: Gal4S6S(b1-4)GlcNAc
# Summary of the method: as §1
# Gal6P(b1-4)GlcNAc = molecular target: Gal6P(b1-4)GlcNAc
# Summary of the method: as §1
# Gal6S(b1-3)GlcNAc = molecular target: Gal6S(b1-3)GlcNAc
# Summary of the method: as §1
# Gal6S(b1-3)GlcNAc6S = molecular target: Gal6S(b1-3)GlcNAc6S
# Summary of the method: as §1
# Gal6S(b1-4)Glc = molecular target: Gal6S(b1-4)Glc
# Summary of the method: as §1
# Gal6S(b1-4)Glc6S = molecular target: Gal6S(b1-4)Glc6S
# Summary of the method: as §1
# Gal6S(b1-4)GlcNAc = molecular target: Gal6S(b1-4)GlcNAc
# Summary of the method: as §1
# Gal6S(b1-4)GlcNAc6S = molecular target: Gal6S(b1-4)GlcNAc6S
# Summary of the method: as §1
# GalNAc(a1-3)Gal = molecular target: GalNAc(a1-3)Gal
# Summary of the method: as §1
# GalNAc(a1-3)GalNAc = molecular target: GalNAc(a1-3)GalNAc
# Summary of the method: as §1
# [15] = molecular target: GalNAc(a1-3)GalNAc(b1-3)Gal(a1-4)Gal(b1-4)Glc
# Summary of the method: as §1
# [16] = molecular target: GalNAc(a1-3)GalNAc(b1-3)Gal(a1-4)Gal(b1-4)GlcNAc
# Summary of the method: as §1
# GalNAc(b1-3)Gal = molecular target: GalNAc(b1-3)Gal
# Summary of the method: as §1
# [17] = molecular target: GalNAc(b1-3)Gal(a1-4)Gal(b1-4)GlcNAc
# Summary of the method: as §1
# [18] = molecular target: GalNAc(b1-3)Gal(a1-4)Gal(b1-4)GlcNAc(b1-3)Gal(b1-4)Glc
# Summary of the method: as §1
# [19] = molecular target: GalNAc(b1-3)Gal(a1-6)Gal(b1-4)Glc
# Summary of the method: as §1
# GalNAc(b1-3)GalNAc = molecular target: GalNAc(b1-3)GalNAc
# Summary of the method: as §1
# GalNAc(b1-3)GlcNAc = molecular target: GalNAc(b1-3)GlcNAc
# Summary of the method: as §1
# GalNAc(b1-4)Gal(b1-4)Glc = molecular target: GalNAc(b1-4)Gal(b1-4)Glc
# Summary of the method: as §1
# GalNAc(b1-4)GlcNAc = molecular target: GalNAc(b1-4)GlcNAc
# Summary of the method: as §1
binder,measurement,setting,value
B1,glycan array binding signal (z-score),[1],-0.892
same,glycan array binding signal (z-score),[2],-0.604
same,glycan array binding signal (z-score),[3],0.361
same,glycan array binding signal (z-score),[4],-0.148
same,glycan array binding signal (z-score),[5],-0.52
same,glycan array binding signal (z-score),[6],-0.948
same,glycan array binding signal (z-score),[7],0.495
same,glycan array binding signal (z-score),[8],-0.1
same,glycan array binding signal (z-score),[9],-0.773
same,glycan array binding signal (z-score),[10],0.039
same,glycan array binding signal (z-score),Gal(b1-4)GlcNAc6P,1.44
same,glycan array binding signal (z-score),Gal(b1-6)Gal,-0.067
same,glycan array binding signal (z-score),Gal3S(b1-3)GalNAc,0.013
same,glycan array binding signal (z-score),Gal3S(b1-3)GlcNAc,0.215
same,glycan array binding signal (z-score),[11],0.301
same,glycan array binding signal (z-score),Gal3S(b1-4)Glc,0.548
same,glycan array binding signal (z-score),Gal3S(b1-4)Glc6S,0.238
same,glycan array binding signal (z-score),Gal3S(b1-4)GlcNAc,0.741
same,glycan array binding signal (z-score),[12],1.39
same,glycan array binding signal (z-score),[13],-0.338
same,glycan array binding signal (z-score),[14],0.512
same,glycan array binding signal (z-score),Gal3S4S(b1-4)GlcNAc,-1.45
same,glycan array binding signal (z-score),Gal3S6S(b1-4)GlcNAc,0.976
same,glycan array binding signal (z-score),Gal3S6S(b1-4)GlcNAc6S,-0.249
same,glycan array binding signal (z-score),Gal4S(b1-4)GlcNAc,-0.086
same,glycan array binding signal (z-score),Gal4S6S(b1-4)GlcNAc,0.198
same,glycan array binding signal (z-score),Gal6P(b1-4)GlcNAc,0.595
same,glycan array binding signal (z-score),Gal6S(b1-3)GlcNAc,1.19
same,glycan array binding signal (z-score),Gal6S(b1-3)GlcNAc6S,-0.874
same,glycan array binding signal (z-score),Gal6S(b1-4)Glc,0.824
same,glycan array binding signal (z-score),Gal6S(b1-4)Glc6S,0.388
same,glycan array binding signal (z-score),Gal6S(b1-4)GlcNAc,0.161
same,glycan array binding signal (z-score),Gal6S(b1-4)GlcNAc6S,0.706
same,glycan array binding signal (z-score),GalNAc(a1-3)Gal,-0.819
same,glycan array binding signal (z-score),GalNAc(a1-3)GalNAc,-0.607
same,glycan array binding signal (z-score),[15],-0.237
same,glycan array binding signal (z-score),[16],0.706
same,glycan array binding signal (z-score),GalNAc(b1-3)Gal,-1.46
same,glycan array binding signal (z-score),[17],-0.073
same,glycan array binding signal (z-score),[18],-0.875
same,glycan array binding signal (z-score),[19],0.796
same,glycan array binding signal (z-score),GalNAc(b1-3)GalNAc,1.01
same,glycan array binding signal (z-score),GalNAc(b1-3)GlcNAc,-0.808
same,glycan array binding signal (z-score),GalNAc(b1-4)Gal(b1-4)Glc,-0.137
same,glycan array binding signal (z-score),GalNAc(b1-4)GlcNAc,-0.187

# Part of the list above in a different format.
binder	measurement	setting	value
B1	glycan array binding signal (z-score)	Gal3S(b1-4)Glc6S	0.238
same	glycan array binding signal (z-score)	Gal3S(b1-4)GlcNAc	0.741
same	glycan array binding signal (z-score)	[12]	1.39
same	glycan array binding signal (z-score)	[13]	-0.338
same	glycan array binding signal (z-score)	[14]	0.512
same	glycan array binding signal (z-score)	Gal3S4S(b1-4)GlcNAc	-1.45
same	glycan array binding signal (z-score)	Gal3S6S(b1-4)GlcNAc	0.976
same	glycan array binding signal (z-score)	Gal3S6S(b1-4)GlcNAc6S	-0.249
same	glycan array binding signal (z-score)	Gal4S(b1-4)GlcNAc	-0.086
same	glycan array binding signal (z-score)	Gal4S6S(b1-4)GlcNAc	0.198

# Source: the supplement of paper PMC8728848
